Data: the supplement of paper PMC10849652
This is one part of the list.

The chains behind the UniProt entries cited, without tags or fusion partners. Where a name states a change or a piece, a line headed by the entry shows the natural chain unless it says otherwise.
UniProt P09493, whole entry, looked up: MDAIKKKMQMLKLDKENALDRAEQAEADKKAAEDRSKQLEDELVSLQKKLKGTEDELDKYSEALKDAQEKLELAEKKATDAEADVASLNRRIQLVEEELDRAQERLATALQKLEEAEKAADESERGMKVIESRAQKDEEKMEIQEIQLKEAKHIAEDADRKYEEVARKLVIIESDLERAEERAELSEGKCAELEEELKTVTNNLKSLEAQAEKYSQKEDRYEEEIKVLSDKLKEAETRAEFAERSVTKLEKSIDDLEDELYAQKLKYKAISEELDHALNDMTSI
UniProt O14545: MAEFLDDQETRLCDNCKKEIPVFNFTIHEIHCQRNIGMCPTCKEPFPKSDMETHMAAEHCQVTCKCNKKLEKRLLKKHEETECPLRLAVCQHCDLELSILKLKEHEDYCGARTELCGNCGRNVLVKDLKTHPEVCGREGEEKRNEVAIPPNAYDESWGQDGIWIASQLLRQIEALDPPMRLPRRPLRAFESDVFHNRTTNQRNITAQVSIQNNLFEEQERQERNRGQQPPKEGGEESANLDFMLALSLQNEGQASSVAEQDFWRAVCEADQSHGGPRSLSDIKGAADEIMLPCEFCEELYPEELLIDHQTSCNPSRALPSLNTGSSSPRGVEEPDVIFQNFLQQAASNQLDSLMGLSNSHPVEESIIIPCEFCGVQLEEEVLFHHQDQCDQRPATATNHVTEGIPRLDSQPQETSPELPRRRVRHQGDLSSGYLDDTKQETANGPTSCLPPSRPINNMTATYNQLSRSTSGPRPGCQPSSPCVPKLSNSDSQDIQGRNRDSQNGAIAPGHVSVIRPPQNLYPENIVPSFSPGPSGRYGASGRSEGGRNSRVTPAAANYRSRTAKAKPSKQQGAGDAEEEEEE
UniProt Q96FX7: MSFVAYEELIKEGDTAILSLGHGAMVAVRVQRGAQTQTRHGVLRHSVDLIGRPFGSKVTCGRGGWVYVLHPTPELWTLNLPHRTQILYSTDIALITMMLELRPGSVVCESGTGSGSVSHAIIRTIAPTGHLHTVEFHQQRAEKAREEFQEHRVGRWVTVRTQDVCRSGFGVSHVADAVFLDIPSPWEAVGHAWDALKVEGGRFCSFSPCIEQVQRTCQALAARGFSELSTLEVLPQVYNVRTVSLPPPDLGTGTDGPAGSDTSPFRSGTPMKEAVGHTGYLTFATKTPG
UniProt P13693: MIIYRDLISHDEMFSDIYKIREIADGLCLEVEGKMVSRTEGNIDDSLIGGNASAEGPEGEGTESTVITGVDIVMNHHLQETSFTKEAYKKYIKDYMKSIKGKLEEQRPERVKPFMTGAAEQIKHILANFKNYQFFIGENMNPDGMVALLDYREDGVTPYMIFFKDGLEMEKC
UniProt Q15643: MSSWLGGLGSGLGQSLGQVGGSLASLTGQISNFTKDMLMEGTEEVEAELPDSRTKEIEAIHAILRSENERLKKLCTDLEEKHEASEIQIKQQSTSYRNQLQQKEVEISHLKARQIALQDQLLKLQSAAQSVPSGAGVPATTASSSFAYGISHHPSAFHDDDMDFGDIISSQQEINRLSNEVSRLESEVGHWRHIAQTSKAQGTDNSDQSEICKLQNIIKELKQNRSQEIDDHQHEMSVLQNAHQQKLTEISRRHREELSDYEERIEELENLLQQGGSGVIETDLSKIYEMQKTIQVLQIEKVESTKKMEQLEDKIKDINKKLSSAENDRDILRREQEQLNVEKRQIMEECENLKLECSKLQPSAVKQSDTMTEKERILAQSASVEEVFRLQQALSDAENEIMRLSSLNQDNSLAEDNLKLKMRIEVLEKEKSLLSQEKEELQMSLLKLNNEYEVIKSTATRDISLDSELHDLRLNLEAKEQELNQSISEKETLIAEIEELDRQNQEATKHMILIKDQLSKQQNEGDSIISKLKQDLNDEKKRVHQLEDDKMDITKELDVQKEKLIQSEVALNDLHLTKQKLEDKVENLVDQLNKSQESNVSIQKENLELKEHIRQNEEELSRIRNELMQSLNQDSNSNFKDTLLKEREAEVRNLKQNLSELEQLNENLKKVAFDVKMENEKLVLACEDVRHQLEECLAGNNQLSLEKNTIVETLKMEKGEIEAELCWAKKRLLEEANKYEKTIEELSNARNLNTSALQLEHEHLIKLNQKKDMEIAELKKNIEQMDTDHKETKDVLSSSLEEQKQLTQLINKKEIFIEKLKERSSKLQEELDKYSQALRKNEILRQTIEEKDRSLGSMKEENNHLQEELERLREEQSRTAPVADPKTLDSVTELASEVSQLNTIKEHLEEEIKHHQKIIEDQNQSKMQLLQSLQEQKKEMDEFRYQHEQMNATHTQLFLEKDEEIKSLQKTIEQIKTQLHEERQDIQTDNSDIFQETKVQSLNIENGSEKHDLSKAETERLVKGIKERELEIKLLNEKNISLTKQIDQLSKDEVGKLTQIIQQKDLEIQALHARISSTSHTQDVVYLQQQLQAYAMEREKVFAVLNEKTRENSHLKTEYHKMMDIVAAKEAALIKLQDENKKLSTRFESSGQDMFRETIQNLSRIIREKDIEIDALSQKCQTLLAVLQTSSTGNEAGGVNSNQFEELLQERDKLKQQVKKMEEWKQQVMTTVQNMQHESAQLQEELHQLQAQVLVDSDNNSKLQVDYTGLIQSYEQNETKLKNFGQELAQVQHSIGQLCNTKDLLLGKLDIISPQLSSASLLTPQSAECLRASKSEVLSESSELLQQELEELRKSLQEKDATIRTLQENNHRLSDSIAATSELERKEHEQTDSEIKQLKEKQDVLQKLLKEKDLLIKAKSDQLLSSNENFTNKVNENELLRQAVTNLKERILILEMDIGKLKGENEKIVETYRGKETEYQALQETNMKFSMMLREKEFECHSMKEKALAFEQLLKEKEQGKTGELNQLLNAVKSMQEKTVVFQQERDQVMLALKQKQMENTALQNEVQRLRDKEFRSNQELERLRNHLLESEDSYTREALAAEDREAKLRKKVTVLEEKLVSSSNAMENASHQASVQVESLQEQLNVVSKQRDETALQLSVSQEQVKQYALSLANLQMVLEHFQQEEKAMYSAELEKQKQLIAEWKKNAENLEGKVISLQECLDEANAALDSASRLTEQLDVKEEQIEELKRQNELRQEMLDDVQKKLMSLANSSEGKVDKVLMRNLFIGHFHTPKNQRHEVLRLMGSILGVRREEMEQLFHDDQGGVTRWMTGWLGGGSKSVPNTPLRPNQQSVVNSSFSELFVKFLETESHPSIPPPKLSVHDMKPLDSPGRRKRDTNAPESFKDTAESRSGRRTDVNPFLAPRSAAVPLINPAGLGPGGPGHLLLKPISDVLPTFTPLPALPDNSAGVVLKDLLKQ
UniProt Q15654: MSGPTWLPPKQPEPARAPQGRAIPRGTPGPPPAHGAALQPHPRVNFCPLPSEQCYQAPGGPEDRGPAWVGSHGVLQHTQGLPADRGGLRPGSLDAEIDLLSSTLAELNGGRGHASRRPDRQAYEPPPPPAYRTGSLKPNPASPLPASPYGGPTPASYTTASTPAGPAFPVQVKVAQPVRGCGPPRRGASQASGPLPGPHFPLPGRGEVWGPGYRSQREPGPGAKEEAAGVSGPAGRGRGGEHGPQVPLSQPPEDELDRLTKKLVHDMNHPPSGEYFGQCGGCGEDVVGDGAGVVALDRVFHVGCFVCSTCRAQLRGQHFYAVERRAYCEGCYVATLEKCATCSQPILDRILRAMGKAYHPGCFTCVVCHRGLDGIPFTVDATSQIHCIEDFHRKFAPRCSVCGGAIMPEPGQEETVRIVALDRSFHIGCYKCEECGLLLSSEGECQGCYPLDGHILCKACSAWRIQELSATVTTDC
UniProt Q15629: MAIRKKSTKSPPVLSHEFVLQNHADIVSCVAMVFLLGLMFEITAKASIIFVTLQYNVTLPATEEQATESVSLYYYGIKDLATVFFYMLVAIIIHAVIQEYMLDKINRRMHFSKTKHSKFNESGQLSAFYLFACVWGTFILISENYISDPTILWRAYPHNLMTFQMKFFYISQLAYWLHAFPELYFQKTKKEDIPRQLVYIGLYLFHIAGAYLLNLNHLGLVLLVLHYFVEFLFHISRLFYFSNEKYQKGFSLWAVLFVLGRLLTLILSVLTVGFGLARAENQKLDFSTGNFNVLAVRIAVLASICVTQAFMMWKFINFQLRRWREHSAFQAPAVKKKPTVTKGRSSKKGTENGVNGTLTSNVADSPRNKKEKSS
UniProt P20333, whole entry, looked up: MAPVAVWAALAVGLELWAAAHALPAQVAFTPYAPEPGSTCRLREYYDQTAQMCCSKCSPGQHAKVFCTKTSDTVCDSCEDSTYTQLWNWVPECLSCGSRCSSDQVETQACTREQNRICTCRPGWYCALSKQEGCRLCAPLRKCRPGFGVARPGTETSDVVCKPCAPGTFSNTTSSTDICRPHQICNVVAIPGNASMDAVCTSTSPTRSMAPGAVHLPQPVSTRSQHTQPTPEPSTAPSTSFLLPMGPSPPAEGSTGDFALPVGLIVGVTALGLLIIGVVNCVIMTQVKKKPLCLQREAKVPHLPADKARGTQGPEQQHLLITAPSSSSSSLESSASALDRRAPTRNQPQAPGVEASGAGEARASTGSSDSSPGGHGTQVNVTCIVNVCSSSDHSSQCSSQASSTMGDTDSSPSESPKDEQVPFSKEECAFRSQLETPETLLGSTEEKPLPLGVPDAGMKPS
UniProt Q969M1: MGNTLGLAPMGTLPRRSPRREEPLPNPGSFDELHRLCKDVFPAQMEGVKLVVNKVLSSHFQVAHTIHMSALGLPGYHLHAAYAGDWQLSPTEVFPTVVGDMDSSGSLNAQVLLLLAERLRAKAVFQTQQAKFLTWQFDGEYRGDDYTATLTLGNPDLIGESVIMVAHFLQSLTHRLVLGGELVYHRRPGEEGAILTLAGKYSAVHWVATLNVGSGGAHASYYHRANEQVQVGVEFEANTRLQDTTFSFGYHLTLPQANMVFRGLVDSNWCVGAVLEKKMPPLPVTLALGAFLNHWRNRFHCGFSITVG
UniProt Q7Z4G4: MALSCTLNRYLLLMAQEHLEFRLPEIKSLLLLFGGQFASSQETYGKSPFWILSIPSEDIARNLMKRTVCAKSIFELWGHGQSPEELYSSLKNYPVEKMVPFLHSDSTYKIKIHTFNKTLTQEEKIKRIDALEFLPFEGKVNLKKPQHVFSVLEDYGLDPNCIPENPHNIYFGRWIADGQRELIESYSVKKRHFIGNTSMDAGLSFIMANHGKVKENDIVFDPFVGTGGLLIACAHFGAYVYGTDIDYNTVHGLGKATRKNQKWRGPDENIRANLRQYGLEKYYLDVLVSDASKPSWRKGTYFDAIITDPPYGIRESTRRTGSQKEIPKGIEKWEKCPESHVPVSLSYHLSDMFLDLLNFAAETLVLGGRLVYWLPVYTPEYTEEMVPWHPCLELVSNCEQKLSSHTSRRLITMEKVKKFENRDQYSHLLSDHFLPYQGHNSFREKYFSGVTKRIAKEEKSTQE
UniProt O96008: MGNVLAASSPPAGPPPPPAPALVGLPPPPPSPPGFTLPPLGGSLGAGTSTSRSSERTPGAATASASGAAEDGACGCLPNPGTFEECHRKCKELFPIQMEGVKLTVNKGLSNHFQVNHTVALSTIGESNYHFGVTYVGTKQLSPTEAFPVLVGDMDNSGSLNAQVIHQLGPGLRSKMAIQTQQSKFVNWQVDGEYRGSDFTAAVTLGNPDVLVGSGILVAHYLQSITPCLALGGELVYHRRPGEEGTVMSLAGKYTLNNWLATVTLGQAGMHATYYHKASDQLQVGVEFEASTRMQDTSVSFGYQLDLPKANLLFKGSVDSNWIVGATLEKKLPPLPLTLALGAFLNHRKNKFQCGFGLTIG
UniProt P02585, whole entry, looked up: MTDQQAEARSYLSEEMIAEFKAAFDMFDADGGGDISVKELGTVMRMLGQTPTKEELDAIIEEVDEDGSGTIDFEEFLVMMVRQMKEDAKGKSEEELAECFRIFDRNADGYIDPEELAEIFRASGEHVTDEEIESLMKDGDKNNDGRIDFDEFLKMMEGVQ
UniProt Q9BUZ4: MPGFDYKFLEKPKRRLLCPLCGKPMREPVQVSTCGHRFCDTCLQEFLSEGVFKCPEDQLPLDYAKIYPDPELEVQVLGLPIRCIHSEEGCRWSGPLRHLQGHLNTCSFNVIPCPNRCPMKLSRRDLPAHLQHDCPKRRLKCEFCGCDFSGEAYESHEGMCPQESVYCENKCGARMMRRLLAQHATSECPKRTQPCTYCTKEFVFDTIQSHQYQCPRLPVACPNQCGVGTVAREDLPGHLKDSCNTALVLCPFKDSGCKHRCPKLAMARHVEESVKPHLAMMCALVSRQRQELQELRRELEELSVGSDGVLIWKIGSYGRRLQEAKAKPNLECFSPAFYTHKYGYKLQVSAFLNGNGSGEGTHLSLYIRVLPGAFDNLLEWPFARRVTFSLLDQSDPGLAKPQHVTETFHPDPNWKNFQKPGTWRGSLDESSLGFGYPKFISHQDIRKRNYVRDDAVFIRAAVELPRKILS

Key:
Assay in all cases: log2 fold change, soluble protein after heating vs DMSO (PISA); higher = thermal stabilisation; K562 cells, 10 uM, 30 min; active = over 0.2 and 3.5 SD of the protein, either way, in both replicates (recomputed)
[1] = compound: NC(=O)Nc1cc(-c2cccc(F)c2)sc1C(=O)N[C@H]1CCCNC1
Summary of the method: (§1)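 Quantification of soluble protein used TMTpro 16plex LC-MS/MS, with channel sums equalised. Samples were the supernatant after 21,000xg for 90 min of pooled aliquots from K562 cells (2×10^6 cells/mL) treated with 10 μM compound for 30 min, heated for 3 min over 48°C-58°C, and extracted in PBS with 0.5% NP-40 at 4°C. Values, from duplicates, describe thermal stability against control samples on a log2 fold-change scale.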

[2] = compound: NC(=O)c1cnc(N[C@@H]2CCCC[C@@H]2N)nc1Nc1cccc(-n2nccn2)c1
Summary of the method: as §1

[3] = compound: NC1(c2ccc(-c3nc4ccn5c(=O)[nH]nc5c4cc3-c3ccccc3)cc2)CCC1
Summary of the method: as §1

[4] = compound: NCC(=O)Nc1ccc(-n2nc(C(F)(F)F)cc2-c2ccc3c(ccc4ccccc43)c2)cc1
Summary of the method: as §1

entinostat = compound: Nc1ccccc1NC(=O)c1ccc(CNC(=O)OCc2cccnc2)cc1 [entinostat]
Summary of the method: as §1

vorinostat = compound: O=C(CCCCCCC(=O)Nc1ccccc1)NO [vorinostat]
Summary of the method: as §1

citarinostat = compound: O=C(CCCCCCNC(=O)c1cnc(N(c2ccccc2)c2ccccc2Cl)nc1)NO [citarinostat]
Summary of the method: as §1

silmitasertib = compound: O=C(O)c1ccc2c(c1)nc(Nc1cccc(Cl)c1)c1ccncc12 [silmitasertib]
Summary of the method: as §1

[5] = compound: O=C1NC(=O)C(c2cnc3ccccn23)=C1c1cn2c3c(cc(F)cc13)CN(C(=O)N1CCCCC1)CC2
Summary of the method: as §1

[6] = compound: c1cc(OCCN2CCCCC2)cc(-c2n[nH]c3ccc(-c4nnc[nH]4)cc23)c1
Summary of the method: as §1

Measured: log2 fold change

TRAPPC9 isoform 2 (UniProt Q96Q05)
inactive: [1] -0.015 | [2] 0.013 | [3] -0.068 | [4] -0.055 | entinostat 0.006 | vorinostat 0.102 | citarinostat 0.103 | silmitasertib -0.004 | [5] 0.066 | [6] -0.172

TNPO2 (UniProt O14787)
inactive: [1] 0.015 | [2] -0.174 | [3] -0.268 | [4] -0.054 | entinostat 0.064 | vorinostat -0.008 | citarinostat 0.047 | silmitasertib 0.059 | [5] -0.04 | [6] -0.124

TOP3B (UniProt O95985)
inactive: [1] 0.066 | [2] 0.004 | [3] 0.033 | [4] 0.062 | entinostat -0.008 | vorinostat 0.053 | citarinostat -0.077 | silmitasertib 0.015 | [5] 0.169 | [6] 0.073

TPRKB (UniProt Q9Y3C4)
inactive: [1] -0.082 | [2] -0.001 | [3] -0.033 | [4] 0.056 | entinostat 0.016 | vorinostat -0.025 | citarinostat 0.054 | silmitasertib -0.005 | [5] -0.028 | [6] -0.053

TPM1 isoform 4 (UniProt P09493)
inactive: [1] 0.056 | [2] 0.045 | [3] 0.09 | [4] 0.006 | entinostat 0.015 | vorinostat -0.003 | citarinostat 0.032 | silmitasertib -0.104 | [5] -0.015 | [6] 0.003

Taken from the results shown (two entries):
TPRKB (UniProt Q9Y3C4)
inactive: [1] -0.082 | [2] -0.001 | [3] -0.033 | [4] 0.056 | entinostat 0.016 | vorinostat -0.025 | citarinostat 0.054 | silmitasertib -0.005 | [5] -0.028 | [6] -0.053

TPM1 isoform 4 (UniProt P09493)
inactive: [1] 0.056 | [2] 0.045 | [3] 0.09 | [4] 0.006 | entinostat 0.015 | vorinostat -0.003 | citarinostat 0.032 | silmitasertib -0.104 | [5] -0.015 | [6] 0.003

(further entries)

TRIM11 (UniProt Q96F44)
inactive: [1] -0.001 | [2] -0.02 | [3] -0.129 | [4] 0.007 | entinostat 0.023 | vorinostat -0.041 | citarinostat 0.033 | silmitasertib -0.028 | [5] -0.027 | [6] -0.043

TRAFD1 (UniProt O14545)
inactive: [1] 0.024 | [2] 0.005 | [3] 0.021 | [4] 0.109 | entinostat -0.078 | vorinostat -0.042 | citarinostat 0.051 | silmitasertib 0.033 | [5] -0.025 | [6] 0.012

TRMT61A (UniProt Q96FX7)
inactive: [1] 0.027 | [2] 0.017 | [3] 0.17 | [4] 0.101 | entinostat -0.029 | vorinostat 0.03 | citarinostat 0.005 | silmitasertib 0.099 | [5] 0.293 | [6] -0.146

TPR (UniProt P12270)
active: silmitasertib 0.3
inactive: [1] 0.09 | [2] -0.039 | [3] 0.06 | [4] -0.032 | entinostat -0.019 | vorinostat -0.084 | citarinostat 0.008 | [5] 0.085 | [6] 0.005

TPT1 (UniProt P13693)
inactive: [1] 0 | [2] -0.049 | [3] -0.059 | [4] -0.039 | entinostat 0.02 | vorinostat 0.007 | citarinostat 0.056 | silmitasertib -0.077 | [5] -0.015 | [6] 0.004

TRIP11 (UniProt Q15643)
inactive: [1] 0.024 | [2] -0.062 | [3] 0.041 | [4] 0.157 | entinostat -0.037 | vorinostat 0.056 | citarinostat -0.028 | silmitasertib 0.072 | [5] -0.082 | [6] -0.032

TRIP6 (UniProt Q15654)
inactive: [1] -0.018 | [2] 0.03 | [3] 0.015 | [4] 0.028 | entinostat 0.001 | vorinostat -0.017 | citarinostat 0.04 | silmitasertib -0.003 | [5] -0.014 | [6] 0.034

TRAM1 (UniProt Q15629)
inactive: [1] -0.104 | [2] -0.073 | [3] -0.162 | [4] -0.196 | entinostat -0.075 | vorinostat 0.034 | citarinostat -0.083 | silmitasertib 0.066 | [5] 0.025 | [6] -0.021

TNFRSF1B (UniProt P20333)
inactive: [1] -0.134 | [2] -0.011 | [3] -0.026 | [4] 0.05 | entinostat -0.06 | vorinostat -0.018 | citarinostat 0.094 | silmitasertib -0.036 | [5] 0.006 | [6] -0.123

TRMT10A (UniProt Q8TBZ6)
inactive: [1] 0.015 | [2] -0.005 | [3] -0.075 | [4] -0.109 | entinostat -0.039 | vorinostat -0.003 | citarinostat -0.013 | silmitasertib -0.023 | [5] 0.007 | [6] -0.02

TOMM40L (UniProt Q969M1)
inactive: [1] 0.048 | [2] 0.071 | [3] -0.029 | [4] 0.023 | entinostat -0.017 | vorinostat -0.036 | citarinostat 0.003 | silmitasertib 0.016 | [5] 0.02 | [6] -0.034

TRMT11 (UniProt Q7Z4G4)
inactive: [1] -0.082 | [2] 0.051 | [3] -0.038 | [4] 0.03 | entinostat -0.054 | vorinostat 0.03 | citarinostat -0.016 | silmitasertib 0.017 | [5] -0.015 | [6] 0.008

TOMM40 (UniProt O96008)
inactive: [1] 0.062 | [2] 0.003 | [3] -0.03 | [4] 0.02 | entinostat 0.019 | vorinostat -0.013 | citarinostat 0.057 | silmitasertib 0.012 | [5] 0.023 | [6] -0.009

TRIM33 (UniProt Q9UPN9)
inactive: [1] 0.134 | [2] -0.114 | [3] -0.028 | [4] -0.002 | entinostat 0.091 | vorinostat 0.08 | citarinostat -0.002 | silmitasertib 0.029 | [5] -0.003 | [6] 0.135

TRIM24 (UniProt O15164)
inactive: [1] 0.063 | [2] 0.143 | [3] -0.055 | [4] -0.086 | entinostat 0.067 | vorinostat 0.072 | citarinostat 0.133 | silmitasertib 0.115 | [5] 0.064 | [6] 0.269

TRAF2 (UniProt Q12933)
inactive: [1] 0 | [2] 0.008 | [3] -0.025 | [4] 0.023 | entinostat 0.019 | vorinostat -0.032 | citarinostat 0.022 | silmitasertib -0.006 | [5] -0.008 | [6] 0.038

TRAF6 (UniProt Q9Y4K3)
inactive: [1] 0.002 | [2] 0.054 | [3] 0.05 | [4] -0.119 | entinostat 0.062 | vorinostat 0.082 | citarinostat -0.021 | silmitasertib -0.004 | [5] -0.023 | [6] 0.064

TNNC2 (UniProt P02585)
inactive: [1] -0.003 | [2] 0.006 | [3] -0.028 | [4] 0.028 | entinostat -0.025 | vorinostat -0.101 | citarinostat 0.048 | silmitasertib -0.026 | [5] -0.033 | [6] -0.003

TOR1AIP2 (UniProt Q8NFQ8)
inactive: [1] -0.021 | [2] -0.023 | [3] -0.015 | [4] -0.009 | entinostat -0.006 | vorinostat -0.02 | citarinostat -0.001 | silmitasertib 0.049 | [5] 0.004 | [6] -0.085

TPP1 (UniProt O14773)
inactive: [1] -0.036 | [2] -0.037 | [3] -0.174 | [4] -0.08 | entinostat 0.036 | vorinostat 0.031 | citarinostat 0.035 | silmitasertib -0.036 | [5] -0.014 | [6] -0.091

TPP2 (UniProt P29144)
inactive: [1] 0.032 | [2] 0.061 | [3] -0.079 | [4] 0.157 | entinostat -0.026 | vorinostat -0.008 | citarinostat -0.049 | silmitasertib -0.027 | [5] 0.098 | [6] -0.192

TRMT61B (UniProt Q9BVS5)
inactive: [1] -0.01 | [2] -0.051 | [3] 0.113 | [4] 0.081 | entinostat -0.059 | vorinostat 0.028 | citarinostat -0.014 | silmitasertib 0.054 | [5] 0.193 | [6] -0.106

TRAF4 (UniProt Q9BUZ4)
inactive: [1] 0.001 | [2] 0.084 | [3] -0.019 | [4] -0.046 | entinostat -0.022 | vorinostat 0.022 | citarinostat 0.025 | silmitasertib -0.009 | [5] -0.012 | [6] -0.027

TOP1 (UniProt P11387)
inactive: [1] 0.158 | [2] -0.029 | [3] 0.154 | [4] 0.185 | entinostat 0.049 | vorinostat 0 | citarinostat -0.054 | silmitasertib 0.057 | [5] 0.085 | [6] -0.087
